Library screening results

Values are the deposited “Percent Effect”, in %.
The controls that fix the scale are not given in the record; negative values are as filed.
This is an unselected part of the compounds tested.

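Whole-cell assay for inhibitors of Mycobacterium tuberculosis growth, labelled Cornell in the record; the read-out is not stated. The concentration is filed as 10 mM, unlikely as a test dose, so the dose is not known. The record gives no direction; compounds strong in two other growth screens of this library score well above the rest, so higher reads as stronger inhibition. About 53,000 compounds were tested under these conditions; 1.7% (about 900) showed 50% or more at least once.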

structure,Percent Effect
CS(=O)(=O)Nc1cccc(C(=O)Nc2ccc3c(c2)C(=O)NC3)c1,17.17%
Cn1cc(CNc2ccc(CCO)cc2)c(-c2ccncc2)n1,-29.21%
Cc1ccc(Cn2nc(C)c3c(C(=O)O)c(Cl)c(C4CC4)nc32)cc1,10.4%
Cc1nc(C2CCCN(C(=O)c3ccnc(N(C)C)c3)C2)no1 (stereo not shown),-6.064%
O=C(Nc1c(F)cccc1F)N1CC(c2nc(C3CC3)no2)C1,10.47%
N#Cc1c(F)cccc1Nc1cnn(CC(=O)N2CCOCC2)c1,-3.85%
[H][C@]12CCC[C@@]1(COCc1ccccn1)CN(C(=O)c1cscn1)C2,4.828%
O=C(O)C(F)(F)F.O=C(c1ccco1)N1CCCC2(CN(Cc3ccc(F)cc3)CCO2)C1 (stereo not shown),23.77%
CCc1nccn1-c1nccnc1C1CCN(C(=O)COC)CC1,-10.68%
O=c1c2ccccc2nnn1CN(CC1CCOC1)C1CC1 (stereo not shown),4.429%
Cn1c(C2CC2)nc2cc(NC(=O)C3CC=CC3)ccc21,11.78%
COc1ccc(OC2CCN(C(=O)C3CCCN(C)C3)CC2)cc1 (stereo not shown),21.98%
Cn1cncc1CNC1CC2(CCN(CC3CC3)CC2)c2ccccc21.O=C(O)C(F)(F)F.O=C(O)C(F)(F)F (stereo not shown),26.55%
Cc1ccc(CNC(=O)CN2C=Nc3ccccc3S2(=O)=O)s1,20.72%
CC(=O)N1CCCC(c2ccccn2)C1 (stereo not shown),-45.7%
CN1CC2(CCN(C(=O)Cc3ccccn3)CC2)OCC1=O.O=C(O)C(F)(F)F,0.7745%
Cc1cccnc1NC(=O)NCc1cccnc1OC(C)C,-3.755%
CCn1c(C)cc(C(=O)NCc2ccc(CS(C)(=O)=O)cc2)c1C,-17.61%
O=C1CCC2(CCCN(c3ncc(F)cn3)CC2)N1Cc1ccccc1 (stereo not shown),12.46%
CSCCC(=O)N1CCCC(c2nccn2Cc2ccncc2)C1 (stereo not shown),3.076%
Cn1cc(C2CCCN2C(=O)CCCc2nc3ccccc3[nH]2)cn1 (stereo not shown),6.349%
CN1CCCC(c2cccc(CCC(N)=O)n2)C1 (stereo not shown),-6.826%
O=C(c1cnn2c1OCCC2)N1CCN(C/C=C/c2ccccc2)CC1,17.29%
CN(Cc1ccncc1)C(=O)CCNS(=O)(=O)c1cccnc1,3.717%
Cn1cc(N2CC3(CCN(Cc4ccccc4)CC3)OCC2=O)cn1.O=C(O)C(F)(F)F,-5.574%
CCC1(CO)CCCN(C(=O)c2ccc(N3CCN(C)CC3)cc2)C1 (stereo not shown),19.99%
COCC(=O)N1CCN(C)C(=O)C(Cc2ccccc2-c2cccs2)C1 (stereo not shown),0.1781%
COc1ccc(C(=O)NCc2ccc(C(=O)O)o2)cc1,-13.39%
CCC(CC)c1cc(CNC(=O)N2CCOC(C)C2)on1 (stereo not shown),2.419%
[H][C@]12CCN(c3ccccc3)C[C@@]1([H])OCCN(C(=O)c1ccco1)C2,17.14%
O=C1N(Cc2ccccc2F)CCCC12CCN(C1CCSCC1)C2 (stereo not shown),35.69%
[H][C@]12CCN(C(=O)c3ccc4c(c3)CCCC4)CC[C@]1([H])OCC(=O)N2,11%
CC(C)N1CCC2(CC1)CC(NCc1ccccn1)c1ccccc1O2.O=C(O)C(F)(F)F.O=C(O)C(F)(F)F.O=C(O)C(F)(F)F (stereo not shown),-14.82%
CC(C)N1CCCC(CNC(=O)CN(C)S(=O)(=O)c2ccccc2)C1 (stereo not shown),-2.001%
Cc1cccc(C(C)(C)CNC(=O)CN(C)c2cnccn2)c1,15.26%
Cn1cc(S(=O)(=O)NCC2CCN(C(=O)Oc3ccccc3)CC2)cn1,3.425%
CCc1ccc(CN2CCNC(C(=O)N3CCN(C)CC3)C2)o1 (stereo not shown),-33.02%
N#Cc1csc(CNCCOc2ccccc2)c1,11.89%
CS(=O)(=O)NCCNC(=O)NC1(c2ccc(Cl)cc2)CCC1,3.706%
CCN(CC)C(=O)[C@@H]1C[C@H](n2cc(-c3ccccn3)nn2)CN1,1.379%
CCc1noc(C(C)N2CCN(CC)CC2)n1 (stereo not shown),-21.38%
C[C@@H]1CN(c2nc3c(cc2C(N)=O)CCC3)CC[C@@]1(O)C1CCC1,6.158%
N#Cc1cnc(NCCCN2C(=O)COc3ccccc32)c(Cl)c1,17.13%
Cc1noc(C)c1CN(Cc1ccccc1)C(C)CN1CCOCC1 (stereo not shown),-12.99%
CC(=O)N1CCCC(C(=O)c2cnn(-c3ccc(F)cc3)c2N)C1 (stereo not shown),17.73%
Cn1cnc(S(=O)(=O)N2CCCc3cc(F)cc(F)c32)c1Cl,-13.73%
CN(C)S(=O)(=O)N1CCC(c2ccncn2)CC1,0.04324%
Fc1cccnc1N1CCOCC2(CCCN(c3nncs3)C2)C1.O=C(O)C(F)(F)F (stereo not shown),5.543%
O=C(O)C(F)(F)F.O=C(O)C(F)(F)F.[H][C@@]12COC[C@]1(COc1ccccn1)CN(C1CCOCC1)C2,25.96%
Cc1nc(N2CCOCC2)nc2c1CCN(C(=O)C1CCCCC1)CC2,34.6%
CC(CN1CCC(CCO)CC1)n1cnc2ccccc21 (stereo not shown),9.523%
Nc1ccc(CC2COc3ccccc3C2)cn1 (stereo not shown),8.352%
CC(=O)Nc1cc(C(=O)N2CCOCC2c2ccc(C)o2)ccc1F (stereo not shown),9.341%
CNS(=O)(=O)Cc1ccc(CNC(=O)c2cccc(C)n2)cc1,10.2%
O=C(c1cccs1)N1CCC2(CC1)CC(Oc1ccccc1)CO2 (stereo not shown),-16.23%
CC(C)CN1CCC(NCCNc2cccnc2)CC1,-3.639%
Cc1cc(CNC(=O)NC(C)(CO)C2CC2)c(C)s1 (stereo not shown),1.286%
Cc1cccn2c(CC(=O)N3CCC(Oc4ncccn4)CC3)cnc12,-37.14%
O=C(c1c[nH]c(=O)c(Cl)c1)N1CCc2ccccc2C1,27.52%
COc1ccc(C(=O)O)c(OCC(=O)NC(C)c2ccccc2)c1 (stereo not shown),3.234%
O=C(CO)N1CCOC2(CCCN(c3ncc(F)cn3)C2)C1.O=C(O)C(F)(F)F (stereo not shown),-69.83%
Cc1ccccc1CC(=O)N1C[C@@H](O)[C@H](N2CCN(C)CC2)C1,-2.885%
COc1cccc(C(=O)N2CCCC(C(=O)CCc3ccccc3)C2)c1 (stereo not shown),7.835%
CO[C@H]1CNC[C@@H]1NC(=O)c1cc(C)nc2ccc(C)cc12,-30.59%
Cc1cc(NC(=O)N2CCN(c3nc(C)c(C)s3)CC2)no1,26.52%
CCN1CC[C@]2(CN(C(=O)C3CCOCC3)C[C@H]2c2ccccc2)C1=O,18.54%
O=S(=O)(c1cccnc1)N1CCCCC1CCN1CCOCC1 (stereo not shown),-15.47%
Cc1ccc(NC2CCN(C(=O)c3ccc4c(c3)CCC4)CC2)nn1,-41.94%
CC(C)CNC(=O)c1cc(Br)c2c(c1)OCCO2,15.48%
O=c1[nH]ncc(NCCOc2cccc(Br)c2)c1Cl,26.51%
COCCN1CCOCC12CCN(C(=O)c1cccnc1)CC2.O=C(O)C(F)(F)F,14.93%
CCn1cc(S(=O)(=O)N2CCC(C)CC2)c(C)n1,18.2%
O=C1NCCN1CCNCC1(O)CCCN(CCC2CCCCC2)C1=O (stereo not shown),-7.581%
Cc1cccc(Cc2cc(C)nc(C3CCCNC3)c2)c1 (stereo not shown),27.24%
CCN(Cc1ccncc1)CC1(O)CCN(C(=O)c2cccc(C)n2)C1 (stereo not shown),-8.223%
CC(C)c1nc(S(=O)(=O)N(C)c2ccc(F)cc2)c[nH]1,0.9821%
Cc1nn(C(C)C)c2cnn(CC(=O)N3CCN(C)CC3)c12,-36.48%
O=C1CNc2ncnc(Nc3cnn(Cc4ccccc4F)c3)c2N1,10.43%
CCSCCC(=O)N1CCc2[nH]nc(COc3ccccc3)c2C1,-29.58%
N#Cc1cc(NS(=O)(=O)CC2CCCCO2)ccc1F (stereo not shown),-5.183%

From ChEMBL document CHEMBL3988442, “University of Dundee, Small-Polar-MMV Screening Library” (2021).